Results on one substance are retold here after paper PMC12286604.

This assay deals with T1, NOXA, wild type, transfected (UniProt Q13794).
T1 sequence: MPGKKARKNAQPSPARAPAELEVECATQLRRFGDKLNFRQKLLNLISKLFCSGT
The assay can be described thus: co-IP; exogenous co-IP: anti-FLAG IP from whole-cell lysate of 293T cells transfected with plasmids for both partners, western blot; which partner bore FLAG is not given.

These are yes or no findings as the source states them, for the method shown. In cells and extracts the contact can be indirect.

As for “WSB2 with the SOCS box deleted (domain or fragment)”, the binding result is “no binding”.
